Assay [1] addresses T1, epithelial cell adhesion molecule (EpCAM), endogenous (human (endogenous in FaDu, Cal27, HCT8)) (UniProt P16422).
T1 sequence: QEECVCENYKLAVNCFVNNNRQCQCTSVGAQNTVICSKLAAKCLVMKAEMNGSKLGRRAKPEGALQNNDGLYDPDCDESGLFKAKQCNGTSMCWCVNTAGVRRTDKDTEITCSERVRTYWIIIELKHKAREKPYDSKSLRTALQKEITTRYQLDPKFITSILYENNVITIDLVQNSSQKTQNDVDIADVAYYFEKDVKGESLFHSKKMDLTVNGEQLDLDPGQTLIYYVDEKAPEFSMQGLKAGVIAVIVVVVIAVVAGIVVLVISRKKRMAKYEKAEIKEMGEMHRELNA
The assay can be described thus: co-IP; bidirectional co-immunoprecipitation of endogenous proteins from precleared whole-cell lysates of FaDu, Cal27 and HCT8 cells; EGFR- or EpCAM-specific antibodies (10 μg) overnight at 4 °C, protein A agarose beads; washed in 25 mM tris, 150 mM NaCl, pH 7.2; immunoblot.

The target in assay [2] is T2, EpEX-Fc (extracellular domain of EpCAM fused to the constant region of human immunoglobulin 1) (human) (UniProt P16422).
T2 sequence (chain, N-glycosylated): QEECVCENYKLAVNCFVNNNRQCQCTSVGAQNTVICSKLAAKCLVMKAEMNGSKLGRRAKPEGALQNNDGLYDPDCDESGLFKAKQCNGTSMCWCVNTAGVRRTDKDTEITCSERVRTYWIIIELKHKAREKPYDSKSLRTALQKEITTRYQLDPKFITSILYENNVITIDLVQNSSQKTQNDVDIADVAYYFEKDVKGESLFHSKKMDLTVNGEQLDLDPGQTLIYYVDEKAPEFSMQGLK
Put plainly: pull-down; EpEX-Fc or Fc (50 μg) incubated with whole-cell lysates of FaDu and Cal27 overnight at 4 °C, immobilised on protein A agarose beads; washed in 25 mM tris, 150 mM NaCl, pH 7.2; immunoblot with Fc- and EGFR-specific antibodies; only the target purified.

The target in assay [3] is epidermal growth factor receptor (EGFR), endogenous full-length (human (endogenous in FaDu, Cal27, HCT8)) (UniProt P00533). The assay can be described thus: co-IP; bidirectional co-immunoprecipitation of endogenous proteins from precleared whole-cell lysates of FaDu, Cal27 and HCT8 cells; EGFR- or EpCAM-specific antibodies (10 μg) overnight at 4 °C, protein A agarose beads; washed in 25 mM tris, 150 mM NaCl, pH 7.2; immunoblot.

For assay [4], the target named is T3, EpEX shed into cell culture supernatants (soluble extracellular domain of EpCAM, endogenous) (human (endogenous in Cal27, Kyse30, FaDu, HCT8)), P16422.
T3 chain: T2 sequence (chain, N-glycosylated)
Put plainly: native gel or EMSA; supernatants of Cal27, Kyse30, FaDu and HCT8 cells immunoprecipitated with EpEX-specific antibodies, separated under nonreducing native conditions against reducing conditions; EpEX detected with specific antibodies. The note with it: remark: other sources report otherwise.

No constants are given. Whether binding was seen depends on the method and setting. For some of these results: Binding seen in cells or lysates may run through a third protein. Some binding calls cover weakened binding; strength is not graded here. For some of these results: Where a sequence is shown, tags or fusion partners need not be part of it.

For “epidermal growth factor receptor (EGFR), endogenous full-length (from UniProt P00533 25-1210)”, the binding entry in assay [1] and in assay [2] was “binds” throughout.

B1: epithelial cell adhesion molecule (EpCAM), endogenous (protein, UniProt P16422 24-314)
chain: T1 sequence
As for B1, the binding entry in assay [3] is reported as “binds”.

B2: EpEX shed into cell culture supernatants (soluble extracellular domain of EpCAM, endogenous), P16422 24-265 (domain or fragment)
chain: T2 sequence (chain, N-glycosylated)
For B2, the binding entry in assay [4] was “binds”.

For the origin of these results see PMC6177200, “EpCAM ectodomain EpEX is a ligand of EGFR that counteracts EGF-mediated epithelial-mesenchymal transition through modulation of phospho-ERK1/2 in head and neck cancers” (PLoS Biology, 2018).
